Measured values: patent publication US20050209278A1, “Piperidinyl- and piperazinyl-sulfonylmethyl hydroxamic acids and their use as protease inhibitors” (priority 2002, published 2005)
The match of structure and compound is tentative.

By UniProt entry, the sequences of proteins in these tests, tags left out. Residues count along the entry.
UniProt P03956, 100-469 limits assumed: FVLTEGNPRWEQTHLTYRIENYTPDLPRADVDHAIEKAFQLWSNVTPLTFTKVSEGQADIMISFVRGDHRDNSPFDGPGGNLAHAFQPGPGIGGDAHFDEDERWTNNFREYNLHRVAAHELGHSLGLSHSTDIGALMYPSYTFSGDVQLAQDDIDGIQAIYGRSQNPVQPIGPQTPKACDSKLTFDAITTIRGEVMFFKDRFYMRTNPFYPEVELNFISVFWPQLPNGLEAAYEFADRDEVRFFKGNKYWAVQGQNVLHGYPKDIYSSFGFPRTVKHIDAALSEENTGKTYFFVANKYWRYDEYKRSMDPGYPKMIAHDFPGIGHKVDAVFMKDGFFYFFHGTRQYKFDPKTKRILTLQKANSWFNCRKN
UniProt P08253, 110-660 limits assumed: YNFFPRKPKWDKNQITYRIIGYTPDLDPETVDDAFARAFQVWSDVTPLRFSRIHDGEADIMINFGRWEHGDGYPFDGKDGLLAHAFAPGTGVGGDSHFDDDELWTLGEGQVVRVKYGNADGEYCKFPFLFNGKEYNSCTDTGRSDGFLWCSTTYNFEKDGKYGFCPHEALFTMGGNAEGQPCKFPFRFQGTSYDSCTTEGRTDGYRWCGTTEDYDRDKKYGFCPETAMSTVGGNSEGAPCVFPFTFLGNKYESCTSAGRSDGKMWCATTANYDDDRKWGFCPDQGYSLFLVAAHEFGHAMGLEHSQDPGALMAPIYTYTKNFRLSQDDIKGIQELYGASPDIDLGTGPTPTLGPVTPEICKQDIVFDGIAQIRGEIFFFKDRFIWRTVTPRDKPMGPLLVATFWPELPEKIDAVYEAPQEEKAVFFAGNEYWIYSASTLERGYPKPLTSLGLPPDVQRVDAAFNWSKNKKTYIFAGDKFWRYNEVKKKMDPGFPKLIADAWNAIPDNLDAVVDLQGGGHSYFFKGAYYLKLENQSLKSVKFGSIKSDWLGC
UniProt P14780, 107-707 limits assumed: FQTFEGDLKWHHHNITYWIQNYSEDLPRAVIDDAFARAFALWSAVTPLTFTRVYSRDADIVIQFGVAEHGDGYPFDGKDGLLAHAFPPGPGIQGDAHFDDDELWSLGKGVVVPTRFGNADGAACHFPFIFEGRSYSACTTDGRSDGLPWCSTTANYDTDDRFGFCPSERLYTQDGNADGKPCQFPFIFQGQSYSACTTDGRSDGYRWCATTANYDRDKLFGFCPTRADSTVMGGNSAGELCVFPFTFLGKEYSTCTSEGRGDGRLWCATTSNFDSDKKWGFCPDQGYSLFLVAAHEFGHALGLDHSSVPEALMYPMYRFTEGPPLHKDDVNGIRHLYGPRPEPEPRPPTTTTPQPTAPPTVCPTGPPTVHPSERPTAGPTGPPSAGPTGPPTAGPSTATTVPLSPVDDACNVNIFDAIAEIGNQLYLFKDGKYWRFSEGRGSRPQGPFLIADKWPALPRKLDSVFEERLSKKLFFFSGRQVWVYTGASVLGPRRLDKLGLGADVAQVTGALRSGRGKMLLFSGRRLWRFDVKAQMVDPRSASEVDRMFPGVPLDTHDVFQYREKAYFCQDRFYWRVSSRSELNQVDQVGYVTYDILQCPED

Key:
Format in all cases: biochemical
MMP-1 = MMP-1 (Homo sapiens, UniProt P03956); assay: MMP-1 inhibition (in vitro Ki); conditions: read-out: MMP-1 Ki; Table 8; tested form: HCl
MMP-2 = MMP-2 (Homo sapiens, UniProt P08253); assay: MMP-2 inhibition (in vitro Ki); conditions: read-out: MMP-2 Ki; Table 8; tested form: HCl
MMP-9 = MMP-9 (Homo sapiens, UniProt P14780); assay: MMP-9 inhibition (in vitro Ki); conditions: read-out: MMP-9 Ki; Table 8; tested form: HCl
MMP-13 = MMP-13 (Homo sapiens, UniProt P45452); assay: MMP-13 inhibition (in vitro Ki); conditions: read-out: MMP-13 Ki; Table 8; tested form: HCl
MMP-14 = MMP-14 (Homo sapiens, UniProt P50281); assay: MMP-14 inhibition (in vitro Ki); conditions: read-out: MMP-14 Ki; Table 8; tested form: HCl

## O=C(NO)C1(S(=O)(=O)N2CCC(c3ccc(CCC(F)(F)C(F)(F)F)cn3)CC2)CCCC1
MMP-1
  Ki: 1610 nM
MMP-2
  Ki: 0.27 nM
MMP-9
  Ki: 0.13 nM
MMP-13
  Ki: 0.06 nM
MMP-14
  Ki: 700 nM
